Drawing on publication PMC9836804, this text covers binding for one molecule.

In the experiment the target is T1, HA-tagged ZEB1 (human) (UniProt P37275).
T1 sequence: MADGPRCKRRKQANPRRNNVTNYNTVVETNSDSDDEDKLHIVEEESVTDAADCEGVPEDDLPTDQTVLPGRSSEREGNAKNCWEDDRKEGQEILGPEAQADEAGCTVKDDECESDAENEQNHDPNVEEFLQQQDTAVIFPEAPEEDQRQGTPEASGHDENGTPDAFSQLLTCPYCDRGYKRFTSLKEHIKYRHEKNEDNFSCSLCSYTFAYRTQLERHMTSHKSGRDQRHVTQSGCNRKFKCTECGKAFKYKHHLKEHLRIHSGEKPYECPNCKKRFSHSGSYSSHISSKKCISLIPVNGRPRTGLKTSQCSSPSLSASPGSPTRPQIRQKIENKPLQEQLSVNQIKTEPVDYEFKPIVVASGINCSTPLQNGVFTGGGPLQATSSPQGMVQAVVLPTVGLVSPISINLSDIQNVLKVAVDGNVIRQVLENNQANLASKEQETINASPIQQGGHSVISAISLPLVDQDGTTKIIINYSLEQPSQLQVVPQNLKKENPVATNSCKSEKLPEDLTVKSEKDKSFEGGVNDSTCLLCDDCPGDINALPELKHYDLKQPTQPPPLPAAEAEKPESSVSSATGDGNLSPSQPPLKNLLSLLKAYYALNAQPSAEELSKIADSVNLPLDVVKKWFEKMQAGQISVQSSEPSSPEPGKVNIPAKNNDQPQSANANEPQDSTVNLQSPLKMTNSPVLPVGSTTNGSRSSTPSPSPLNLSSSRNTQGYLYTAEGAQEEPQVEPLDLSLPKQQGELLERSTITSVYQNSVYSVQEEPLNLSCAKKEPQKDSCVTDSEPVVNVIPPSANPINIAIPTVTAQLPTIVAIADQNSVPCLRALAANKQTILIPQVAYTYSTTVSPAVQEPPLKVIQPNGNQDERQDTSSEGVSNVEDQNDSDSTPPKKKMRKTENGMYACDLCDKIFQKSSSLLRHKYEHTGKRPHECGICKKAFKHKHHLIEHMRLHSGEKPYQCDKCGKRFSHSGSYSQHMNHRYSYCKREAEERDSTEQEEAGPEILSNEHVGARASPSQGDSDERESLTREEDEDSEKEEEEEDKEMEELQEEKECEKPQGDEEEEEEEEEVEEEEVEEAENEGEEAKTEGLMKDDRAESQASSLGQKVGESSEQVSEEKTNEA
Description: co-IP; NCI-H1395 cells transfected with FLAG-tagged TRIM58 or HA-tagged ZEB1; lysate with 2 uL FLAG/HA antibody and Protein A/G magnetic beads, 4 h at 4°C; immunoblotting by FLAG/HA antibodies. On the technique in general: Immunoblotting shows a protein as a band on a membrane.

These are yes or no findings as the source states them, for the method shown. In cells and extracts the contact can be indirect. Some entries that bind do so weakly or less than the wild type. Tags and fused reporters may be left off the sequences shown.

B1: FLAG-tagged TRIM58 (protein, UniProt Q8NG06 1-486)
chain: MAWAPPGERLREDARCPVCLDFLQEPVSVDCGHSFCLRCISEFCEKSDGAQGGVYACPQCRGPFRPSGFRPNRQLAGLVESVRRLGLGAGPGARRCARHGEDLSRFCEEDEAALCWVCDAGPEHRTHRTAPLQEAAGSYQVKLQMALELMRKELEDALTQEANVGKKTVIWKEKVEMQRQRFRLEFEKHRGFLAQEEQRQLRRLEAEERATLQRLRESKSRLVQQSKALKELADELQERCQRPALGLLEGVRGVLSRSKAVTRLEAENIPMELKTACCIPGRRELLRKFQVDVKLDPATAHPSLLLTADLRSVQDGEPWRDVPNNPERFDTWPCILGLQSFSSGRHYWEVLVGEGAEWGLGVCQDTLPRKGETTPSPENGVWALWLLKGNEYMVLASPSVPLLQLESPRCIGIFLDYEAGEISFYNVTDGSYIYTFNQLFSGLLRPYFFICDATPLILPPTTIAGSGNWASRDHLDPASDVRDDHL
For the molecule B1, the binding entry is on record as “binds”.
